In PubChem BioAssay AID2685 (National Center for Advancing Translational Sciences (NCATS), 2010):
The whole screen tested about 320,000 compounds, of which about 2,100 (0.66%) were called active. The call rests on the fitted dose curve; in most records, active means well fitted inhibition curve with a large enough effect in the signal ratio, with a control signal flat (not every such curve was filed as active); inconclusive means small, poorly fitted or top-dose-only effect, or effect the other way, or a change in a side signal; inactive means flat fitted curve, though single readings scatter; the % refers to the signal ratio. Inconclusive means that the source gave no clear call. Potencies beside an inconclusive call are fits to weak or partial responses and may not hold up.

assay: qHTS Assay for Lipid Storage Modulators in Drosophila S3 Cells; conditions: BODIPY lipid droplet fluorescence, 18-24 h, cells fed with added oleic acid; lipid storage change, negative = inhibition: at 46.1 µM (top of the series) unless noted
Summary of the method: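 Laser-scanning cytometry quantifies lipid droplet accumulation (500–530 nm total intensity; droplet/cell object ratio) in oleic acid-fed (400 uM added) Drosophila S3 cells treated with a concentration series. 20 uM Triacsin C defined 100% inhibition.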
On the % scale 0 is the no-effect control and ±100 the full control effect; potency means the concentration at half of the fitted maximal effect.

Potency, inconclusive:
C/C(=N\NC(=O)C(C)Sc1ccccc1)c1ccc([N+](=O)[O-])cc1 (centres undefined) 7.31 µM [falling, single point]
COc1ccc(OC)c(Nc2nc(NCCO)c3ccccc3n2)c1 20.6 µM [falling, single point]
CC(C)c1ccc(NC(=O)CSc2nnc(-c3ccccn3)n2C)cc1 5.17 µM [falling, full curve]
O=C(COC(=O)c1ccc(Cl)c(S(=O)(=O)N2CCOCC2)c1)Nc1ccc2[nH]c(=O)[nH]c2c1 29.1 µM [activator, single point]
COc1ccc(-c2ccc(-c3nc4c(c(=O)[nH]c(=O)n4Cc4ccccc4)n3C)o2)c([N+](=O)[O-])c1 0.0046 µM [activator, full curve, poor fit]
Cc1cccc(N2CCN(S(=O)(=O)c3ccc4c(c3)C(C)(C)C(=O)N4C)CC2C)c1 (centres undefined) 32.6 µM [falling, single point]
COC(=O)c1ccc(NC(=O)CN(c2ccc(OC)cc2)S(C)(=O)=O)cc1 20.6 µM [activator, partial curve, poor fit]
CC(C)C(=O)c1ccc(O)c(O)c1 0.0046 µM [falling, full curve, poor fit]
CC(=O)NC(CC(=O)N1CCN(C(C)=O)CC1)c1ccccc1 (centres undefined) 5.8 µM [activator, full curve]
Cc1ccc(CNC(=O)c2cccc3c2C(=O)c2ccc(N4CCC(C)CC4)cc2S3(=O)=O)cc1 0.58 µM [falling, single point]
COc1ccc(NS(=O)(=O)c2cccc(C(=O)NNC(=O)CNC(=O)c3ccccc3F)c2)cc1 9.2 µM [activator, partial curve]
Cc1ccc(CC(=O)OC(C)C(=O)NC2CCCCC2C)cc1C (centres undefined) 0.0041 µM [falling, full curve, poor fit]
C=CCc1cc(OC)ccc1OCCON1C(=O)CCC1=O 14.6 µM [activator, single point]
CCc1nnc(NC(=O)CSc2nnc(-c3ccccc3O)n2CC)s1 29.1 µM [rising, single point]
N/C(Cc1cccs1)=N\OC(=O)COc1ccc(Br)cc1 29.1 µM [activator, single point]
O=C(O)CN1C(=O)/C(=C\c2cc([N+](=O)[O-])ccc2OCc2ccccc2Cl)SC1=S 6.51 µM [falling, single point]
COc1ccc(S(=O)(=O)N2CCCCCC2)cc1C(=O)N(C)CCOc1ccc(Cl)cc1 6.51 µM [falling, single point]
CCc1noc(C)c1C(=O)OCC(=O)NC(=O)c1ccccc1 0.13 µM [falling, full curve, poor fit]
CNC(=S)N1N=C(c2ccccc2)CC1c1ccc(Br)cc1 (centres undefined) 0.731 µM [activator, partial curve]
CC1CC(C)CN(CCC(=O)Nc2ccc(Br)cc2)C1 (centres undefined) 2.31 µM [activator, partial curve]
Cc1ccc(C(N)=S)c(C)c1 0.651 µM [falling, single point]
CC(C)(C)S(=O)(=O)/C(C#N)=N/Nc1ccc(Cl)cc1 29.1 µM [falling, single point]
CCOC(=O)C1CCCN(CCC(=O)Nc2ccc(F)c(F)c2)C1 (centres undefined) 6.51 µM [falling, single point]
Cc1ccccc1C(=O)O/N=C(\c1ccccc1)c1ccccn1 20.6 µM [activator, single point]

Lipid storage change, negative = inhibition, inconclusive:
O=C(NCCc1ccc(F)cc1)c1ccc([N+](=O)[O-])cc1 145%
CCCC1(CCC)NC(=O)N(CC(=O)c2cc(C)n(-c3ccc4c(c3)OCO4)c2C)C1=O 9.71%
O=C(c1cc2n(n1)C(C(F)(F)F)CC(c1ccc(F)cc1)N2)N1CCCC1 (centres undefined) 23.6%
CCOCCn1c(SCCc2ccccc2)nc2c1c(=O)[nH]c(=O)n2C 1.91%
Cc1cc(/C(N)=N/OC(=O)c2ccc(Cl)cc2)no1 7.29%
O=C(Nc1cccc(C(F)(F)F)c1)Nn1cnnc1 250%
COc1ccc(NC(=O)/C(C#N)=C/c2ccc(OCc3ccccc3F)cc2)cc1 9.64%
COc1ccc(CCN(Cc2cc3cc4c(cc3[nH]c2=O)OCO4)C(C)=O)cc1OC 8.61%
Cc1coc2cc3oc(=O)c(CCC(=O)N4CCC(C(=O)O)(c5ccccc5)CC4)c(C)c3cc12 -32.2%
CNc1nnc(-c2ccc(C)cc2)c2ccccc12 3.77%
Cc1ccc(NC(=O)C/C(N)=N/OC(=O)Nc2ccc(C)c(Cl)c2)cc1 22.6%
CCCOc1c(Cl)cc(/C=N/O)cc1OCC 269%
CCCCC(=O)NCc1ccc(Cl)cc1 -31.1%
CS(=O)(=O)N(CC(=O)N1CCCCCC1)c1cccc(Cl)c1Cl -20.7%
Cc1noc(C)c1C(=O)Nc1cccc(S(=O)(=O)N2CCOCC2)c1 -15.8%
O=C(Nc1ccc(N2CCN(C(=O)c3ccc(Cl)cc3)CC2)cc1)c1ccc([N+](=O)[O-])o1 -43.5%
CCCCCCCNC(=O)C1(CC2CC(c3cccc(Br)c3)=NO2)CCN(C(=O)C2CCCC2)CC1 (centres undefined) 6.29%
Cc1cc(=O)[nH]c(N/N=C/c2ccc(F)cc2)n1 41.7%
CC1CCCC(C)N1C(=O)CSc1nccc(=O)[nH]1 (centres undefined) 23.9%
O=C(NCc1ccccc1)C1=C[C@@H](c2ccc(C(F)(F)F)cc2)C[C@@H](OCc2ccc(CO)cc2)O1 -5.14%
O=C(c1ccc(Cl)c(NC2=NC3CS(=O)(=O)CC3S2)c1)N1CCN(c2ccc(F)cc2)CC1 (centres undefined) 7.61%
CN1CCC(NC(=O)c2cc(-c3cccc(Br)c3)nc3ccccc23)CC1 -11.8%
CC(C)c1ccc(-c2nc(N3CCOCC3)[nH]c(=O)c2C#N)cc1 107%
O=C(Cc1ccccc1)NNC1CC(=O)N(c2ccc(Br)cc2)C1=O (centres undefined) -16.7%
COc1ccc(-n2nnnc2SCC(=O)c2ccc(OC)c(OC)c2)cc1 12.2%
O=C(CCCN1C(=O)/C(=C\c2ccco2)SC1=S)Nc1ccc2ccccc2c1 -22.2%
CCOC(=O)c1nc(C)n(-c2cc(Cl)ccc2Cl)n1 19.3%
COc1ccc(-c2cc3ccc(OCc4nn[nH]n4)cc3oc2=O)cc1OC -31.9%
CCCCCCCN1C/C=C\C(c2ccc(OC)cc2)N(Cc2ccc(F)cc2)C(=O)[C@H]1Cc1ccccc1 (some centres undefined) 21%
O=S(=O)(NCCc1csc(-c2cccnc2)n1)c1ccc(Cl)s1 5.53%
COc1ccc(CCNC(=O)C2CCN(S(=O)(=O)N3CCC4(CC3)OCCO4)CC2)cc1OC -2.32%
CCc1ccc(N(CC(=O)Nc2nc3ccc(C)cc3s2)S(=O)(=O)c2c(C)noc2C)cc1 -2.93%
O=C(CSc1nnnn1C1CCCCC1)NCc1cccs1 -5.82%
CCC(=O)Nc1ccc(NC(=O)CSc2nnc(C(C)C)n2C)cc1 10.7%
CCCCN(C(=O)CCC(=O)Nc1cc(C)on1)C(C(=O)NC1CCCC1)c1ccccc1C (centres undefined) -77.1%
CCOC(=O)CSc1nnc(CNC(=O)c2ccccc2OC)n1-c1ccc(OC)cc1 -7.51%
CN(C)C(CNC(=O)c1ccc(NS(=O)(=O)c2ccc(F)cc2)cc1)c1ccco1 (centres undefined)
Cc1ccccc1NC(=O)NC1CCS(=O)(=O)C1 (centres undefined) 37.4%
COc1cc2ccccc2cc1C(=O)Nc1ccc(N2CCN(C)CC2)cc1 22.9%
COc1cc(C(=O)Nc2ccc(NC(=O)C3CC3)nc2)cc(OC)c1OC -16%
CC(CC(=O)N1CCN(c2ccccc2F)CC1)c1ccccc1 (centres undefined) -1.59%
O=C(NCc1ccc(F)cc1)c1ccc(S(=O)(=O)N2CCCCC2)cc1 -11.7%
O=C(CN1C(=O)NC2(CCCCC2)C1=O)N1CCOCC1 -15.9%
CN1CCN(c2ccccc2NC(=O)c2ccc(N3CCOCC3)c([N+](=O)[O-])c2)CC1 8.27%
CN(C)S(=O)(=O)c1cccc(C(=O)NCC2CCCCC2)c1 93.2%
Cc1cc(C)n(-c2ccc(C(=O)OCC(=O)N(CC(C)C)C3CCS(=O)(=O)C3)cc2)n1 (centres undefined) 21%
Cc1onc(-c2c(F)cccc2Cl)c1C(=O)Nc1cccc(S(=O)(=O)NC2=NCCC2)c1 -25.6% [at 0.0737 µM]
CC(=O)C1=C(C)N(CC2CC2)C(=O)N[C@H]1c1ccccc1 7.99%
Cc1ccc(/C=N/N2CCN(C3c4ccccc4-c4ccccc43)CC2)s1 7.71%
Cc1cc(C)n(C(=O)CN2C(=O)COc3ccccc32)n1 37.6%

4 entries drawn at random from those above:
Lipid storage change, negative = inhibition, inconclusive:
CC(CC(=O)N1CCN(c2ccccc2F)CC1)c1ccccc1 (centres undefined) -1.59%
O=C(NCc1ccccc1)C1=C[C@@H](c2ccc(C(F)(F)F)cc2)C[C@@H](OCc2ccc(CO)cc2)O1 -5.14%
Cc1cc(=O)[nH]c(N/N=C/c2ccc(F)cc2)n1 41.7%
CCOC(=O)c1nc(C)n(-c2cc(Cl)ccc2Cl)n1 19.3%
